Results are given in words; binding and its absence hold for the method and conditions named. In cells and extracts the contact can be indirect. A yes stands for co-enrichment or nearness to the bait. Other partners may have been found. A no says only that the protein was not detected with the bait. Tags and fused reporters may be left off the sequences shown.

In this test the target is T1, GFP-CDK5RAP2(51-100) (human) (UniProt Q96SN8).
T1 sequence: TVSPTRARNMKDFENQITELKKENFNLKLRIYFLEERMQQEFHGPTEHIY
Briefly: affinity purification with mass spectrometry.

For the substance NEDD1 (S. scrofa), the binding entry is reported as “no binding”. In the case of Non-erythrocyte spectrin (S. scrofa) it was “binds”.
